Data: paper PMC7809101, “Fetal bovine serum albumin inhibits antimicrobial peptide activity and binds drug only in complex with α1-antitrypsin” (Scientific Reports, 2021)
No constants are given. Whether binding was seen depends on the method and setting. Some binding calls cover weakened binding; strength is not graded here.

Amino acid sequences for entries named in this document (tags omitted). Residues count along the entry.
UniProt P02769, residues 25-607: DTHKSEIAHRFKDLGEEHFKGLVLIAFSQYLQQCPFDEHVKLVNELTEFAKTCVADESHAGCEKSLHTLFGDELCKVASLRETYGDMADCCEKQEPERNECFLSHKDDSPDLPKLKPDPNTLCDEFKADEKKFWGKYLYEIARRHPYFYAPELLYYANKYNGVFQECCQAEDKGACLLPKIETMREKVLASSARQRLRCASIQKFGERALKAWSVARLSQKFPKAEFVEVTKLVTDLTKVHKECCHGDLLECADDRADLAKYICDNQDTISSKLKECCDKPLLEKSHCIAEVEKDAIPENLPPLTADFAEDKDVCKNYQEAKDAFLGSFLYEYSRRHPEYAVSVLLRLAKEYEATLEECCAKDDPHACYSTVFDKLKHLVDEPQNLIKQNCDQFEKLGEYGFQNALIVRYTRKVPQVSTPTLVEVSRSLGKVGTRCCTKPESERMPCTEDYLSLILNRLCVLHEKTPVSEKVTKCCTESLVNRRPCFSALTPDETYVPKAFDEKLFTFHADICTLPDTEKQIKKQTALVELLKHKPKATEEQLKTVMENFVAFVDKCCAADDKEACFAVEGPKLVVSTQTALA

Assays:
[1] = biological target: protein A (albumin) (bovine (endogenous in fetal bovine serum)) (UniProt P02769); test: cross-linking; proteins A, B and D (4 μg) with glutaraldehyde (1X = 0.00625%) in 10 μl PC buffer, 37 °C 30 min; 8% reduced SDS-PAGE, Coomassie and Western blotting; monomer to dimer of the albumin-α1-antitrypsin unit; dimerization inhibited by 2 × SDS and 0.05% β-ME; both purified
[2] = biological target: protein A (albumin) (bovine (endogenous in fetal bovine serum)) (UniProt P02769); test: co-purification and non-reducing SDS-PAGE with Western blot and LC/MS/MS; purified protein D on non-reducing 8% SDS-PAGE; antibodies against albumin and α1-antitrypsin; bands after reduction identified by LC/MS/MS; both purified
[3] = biological target: protein A (albumin) (bovine (endogenous in fetal bovine serum)) (UniProt P02769); test: SDS-PAGE, Western blot, native PAGE and HPLC after reduction; protein D with increasing β-ME (0.05–0.8%); non-reducing SDS-PAGE, Western blotting, horizontal native PAGE pH8.8, HPLC-C4; both purified
[4] = biological target: protein B (α1-antitrypsin) (bovine (endogenous in fetal bovine serum)) (UniProt P34955); test: cross-linking; proteins A, B and D (4 μg) with glutaraldehyde (1X = 0.00625%) in 10 μl PC buffer, 37 °C 30 min; 8% reduced SDS-PAGE, Coomassie and Western blotting; monomer to dimer of the albumin-α1-antitrypsin unit; dimerization inhibited by 2 × SDS and 0.05% β-ME; both purified

Molecule | binding [1] | binding [2] | binding [3] | binding [4]
protein A (albumin) (from UniProt P02769 25-607) (other; other documents disagree on this pair) | no binding |  |  | 
protein B (α1-antitrypsin) (protein, UniProt P34955 25-416) GVLQGHAVQETDDTSHQEAACHKIAPNLANFAFSIYHHLAHQSNTSNIFFSPVSIASAFAMLSLGAKGNTHTEILKGLGFNLTELAEAEIHKGFQHLLHTLNQPNHQLQLTTGNGLFINESAKLVDTFLEDVKNLYHSEAFSINFRDAEEAKKKINDYVEKGSHGKIVELVKVLDPNTVFALVNYISFKGKWEKPFEMKHTTERDFHVDEQTTVKVPMMNRLGMFDLHYCDKLASWVLLLDYVGNVTACFILPDLGKLQQLEDKLNNELLAKFLEKKYASSANLHLPKLSISETYDLKSVLGDVGITEVFSDRADLSGITKEQPLKVSKALHKAALTIDEKGTEAVGSTFLEAIPMSLPPDVEFNRPFLCILYDRNTKSPLFVGKVVNPTQA |  | binds | no binding (condition: with β-ME (0.05–0.8%)) | no binding
